According to US20080033007A1, “Substituted Tetrahydroisoquinoline Compounds for Cancer Therapy” (priority 2002, published 2008):
“Also recorded” adds a separate entry of the source. For at least one compound, name, drawing or mass did not settle the structure.

Legend:
C6 rat glioma = test: differential culture cytotoxicity assay, C6 glioma; conditions: C6 glioma vs normal astrocytes; listed as 1, hydrochloride
Protocol: Normal cultured rat astrocytes and C6 rat glioma were used as a differential screen for a variety of 1,2,3,4-tetrahydroisoquinoline derivatives. […] To explore structure activity relationships (SAR) a number of 1,2,3,4-tetrahydroisoquinolines 2, 4, 5, 7, and 8 were synthesized and tested for antiglioma activity.
The astrocytes primary culture was derived from neonatal (4-8 days postpartum) rat pups as described by Geisert et al. The primary cultures were prepared as per McCarthy et al. Briefly, the rat pups were anesthetized on ice, decapitated, and the brains were removed. The cerebral cortex was removed, stripped of the meninges, and cut into small pieces of approximately 1 mm^2. The tissue was placed in 0.1% trypsin for 15 min and gently pipetted to produce a single cell suspension. The cell suspension was then rinsed in media and transferred to culture flasks. […]
The experimental treatment was the incubation of the cells with test compound for 96 h at 37° C., 5% CO2. The cells were fixed with 4% formaldehyde, stained with 0.1% cresylecth violet stain, and quantitated as per Wagner et a. […]
The cytotoxic character of each compound was reported as the percent survival, calculated as the average A560 for treated cells divided by A560 of untreated (negative control) cells, and expressed as a percentage. […]

[1] = test system: human glioblastoma cell lines; test: anticancer activity on human glioblastoma cell lines; type: cell-based; conditions: several human glioblastoma cell lines, including U87 and U373; listed as 1, hydrochloride

Compound: Cl.Oc1cc2c(cc1O)C(Cc1ccc(-c3ccccc3)cc1)NCC2 (racemic) [MMGS-155]
- selectivity for C6 glioma over astrocytes (C6 rat glioma): selectively blocked the growth of C6 glioma leaving normal astrocytes relatively unaffected; also recorded: comparably selective; also recorded: similar-to-improved selectivity
- activity on human glioma / glioblastoma cell lines [1]: demonstrates activity against a variety of human glioblastomas; also recorded: activity in a panel of human gliomas, including U87 and U373
